The supplement of paper PMC10849652
Some of the results follow.

Chains of the proteins cited; added tags and fusions are not shown. Lines headed by an entry give the natural chain unless they say otherwise; changes in a name come on top.
UniProt P61006: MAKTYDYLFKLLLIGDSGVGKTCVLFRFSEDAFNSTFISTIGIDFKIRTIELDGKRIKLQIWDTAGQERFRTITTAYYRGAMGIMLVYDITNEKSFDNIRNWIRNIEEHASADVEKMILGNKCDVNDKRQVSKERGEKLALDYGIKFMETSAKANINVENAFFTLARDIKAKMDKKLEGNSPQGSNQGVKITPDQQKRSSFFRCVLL
UniProt Q9NX57: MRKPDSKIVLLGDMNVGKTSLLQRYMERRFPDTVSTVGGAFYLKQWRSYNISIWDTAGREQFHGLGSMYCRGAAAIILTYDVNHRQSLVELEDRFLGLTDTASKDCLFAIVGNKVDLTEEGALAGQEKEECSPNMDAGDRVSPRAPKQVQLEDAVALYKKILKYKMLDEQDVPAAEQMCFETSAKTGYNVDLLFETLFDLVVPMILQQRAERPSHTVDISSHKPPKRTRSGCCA
UniProt Q15311: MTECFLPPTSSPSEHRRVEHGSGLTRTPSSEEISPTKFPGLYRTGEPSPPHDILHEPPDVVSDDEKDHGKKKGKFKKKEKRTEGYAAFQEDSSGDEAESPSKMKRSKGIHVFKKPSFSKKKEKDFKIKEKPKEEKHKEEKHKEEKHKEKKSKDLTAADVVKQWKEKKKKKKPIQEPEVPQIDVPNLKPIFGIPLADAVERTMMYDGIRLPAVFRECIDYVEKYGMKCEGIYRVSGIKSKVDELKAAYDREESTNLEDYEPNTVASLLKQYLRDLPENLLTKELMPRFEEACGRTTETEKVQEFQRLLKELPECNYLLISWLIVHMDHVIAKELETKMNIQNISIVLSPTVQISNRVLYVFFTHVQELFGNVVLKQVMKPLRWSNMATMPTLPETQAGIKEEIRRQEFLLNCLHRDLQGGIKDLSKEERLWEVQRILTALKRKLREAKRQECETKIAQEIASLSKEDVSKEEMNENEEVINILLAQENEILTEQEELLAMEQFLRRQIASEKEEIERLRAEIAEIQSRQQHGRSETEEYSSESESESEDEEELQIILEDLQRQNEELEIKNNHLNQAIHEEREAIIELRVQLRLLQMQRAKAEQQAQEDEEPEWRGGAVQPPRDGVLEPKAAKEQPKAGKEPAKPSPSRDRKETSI
UniProt P10114: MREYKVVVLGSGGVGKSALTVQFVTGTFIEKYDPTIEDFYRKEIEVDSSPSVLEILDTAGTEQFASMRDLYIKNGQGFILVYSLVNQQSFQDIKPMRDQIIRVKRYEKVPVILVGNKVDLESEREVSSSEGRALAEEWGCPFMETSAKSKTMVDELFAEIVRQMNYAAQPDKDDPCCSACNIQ
UniProt P20336: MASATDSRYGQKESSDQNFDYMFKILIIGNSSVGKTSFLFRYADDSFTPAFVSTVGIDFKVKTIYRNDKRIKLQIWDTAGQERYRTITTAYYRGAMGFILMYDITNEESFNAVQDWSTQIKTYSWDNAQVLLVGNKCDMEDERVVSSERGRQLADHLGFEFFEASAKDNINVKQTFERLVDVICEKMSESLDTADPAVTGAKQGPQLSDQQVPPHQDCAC
UniProt P20339: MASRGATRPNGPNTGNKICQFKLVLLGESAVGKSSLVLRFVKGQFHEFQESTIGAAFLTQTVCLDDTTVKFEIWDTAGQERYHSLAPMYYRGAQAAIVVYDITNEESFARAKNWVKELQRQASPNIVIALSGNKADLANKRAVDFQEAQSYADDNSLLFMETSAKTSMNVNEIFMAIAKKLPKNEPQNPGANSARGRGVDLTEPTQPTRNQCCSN
UniProt P61018: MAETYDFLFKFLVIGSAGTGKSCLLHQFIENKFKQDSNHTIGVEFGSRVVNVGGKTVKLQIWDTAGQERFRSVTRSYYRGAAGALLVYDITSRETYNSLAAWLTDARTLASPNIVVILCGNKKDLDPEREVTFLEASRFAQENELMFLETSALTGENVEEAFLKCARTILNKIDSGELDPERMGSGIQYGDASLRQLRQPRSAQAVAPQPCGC
UniProt Q15032: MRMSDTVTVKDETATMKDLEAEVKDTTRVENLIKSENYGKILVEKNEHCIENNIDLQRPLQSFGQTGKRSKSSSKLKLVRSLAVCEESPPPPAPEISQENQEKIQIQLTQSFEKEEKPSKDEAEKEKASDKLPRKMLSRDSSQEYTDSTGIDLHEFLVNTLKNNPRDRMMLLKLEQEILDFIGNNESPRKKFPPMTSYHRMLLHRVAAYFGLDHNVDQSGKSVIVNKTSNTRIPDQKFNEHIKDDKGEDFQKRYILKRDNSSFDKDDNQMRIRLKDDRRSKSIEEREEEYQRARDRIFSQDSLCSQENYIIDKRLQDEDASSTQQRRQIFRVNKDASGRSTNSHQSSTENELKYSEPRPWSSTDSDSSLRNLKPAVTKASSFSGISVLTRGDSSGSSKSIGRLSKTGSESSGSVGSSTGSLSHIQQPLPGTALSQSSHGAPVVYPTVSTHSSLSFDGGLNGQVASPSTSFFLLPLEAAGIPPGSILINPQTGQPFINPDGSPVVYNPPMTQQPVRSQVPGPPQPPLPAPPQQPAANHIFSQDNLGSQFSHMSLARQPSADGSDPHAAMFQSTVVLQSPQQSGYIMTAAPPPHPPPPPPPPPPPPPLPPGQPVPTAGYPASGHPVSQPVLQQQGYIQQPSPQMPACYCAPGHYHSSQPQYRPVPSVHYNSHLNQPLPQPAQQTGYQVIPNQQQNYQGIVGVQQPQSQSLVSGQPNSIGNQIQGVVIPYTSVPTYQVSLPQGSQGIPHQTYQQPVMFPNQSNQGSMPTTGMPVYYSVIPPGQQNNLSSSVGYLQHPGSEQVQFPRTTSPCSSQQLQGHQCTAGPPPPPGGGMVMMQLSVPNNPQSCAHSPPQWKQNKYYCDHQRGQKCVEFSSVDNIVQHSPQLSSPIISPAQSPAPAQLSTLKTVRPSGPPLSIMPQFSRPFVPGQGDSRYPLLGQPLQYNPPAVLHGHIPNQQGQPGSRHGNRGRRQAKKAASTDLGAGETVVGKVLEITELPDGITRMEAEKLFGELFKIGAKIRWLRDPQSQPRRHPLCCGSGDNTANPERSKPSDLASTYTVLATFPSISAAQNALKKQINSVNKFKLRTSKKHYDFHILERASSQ
UniProt P49792, whole entry, looked up: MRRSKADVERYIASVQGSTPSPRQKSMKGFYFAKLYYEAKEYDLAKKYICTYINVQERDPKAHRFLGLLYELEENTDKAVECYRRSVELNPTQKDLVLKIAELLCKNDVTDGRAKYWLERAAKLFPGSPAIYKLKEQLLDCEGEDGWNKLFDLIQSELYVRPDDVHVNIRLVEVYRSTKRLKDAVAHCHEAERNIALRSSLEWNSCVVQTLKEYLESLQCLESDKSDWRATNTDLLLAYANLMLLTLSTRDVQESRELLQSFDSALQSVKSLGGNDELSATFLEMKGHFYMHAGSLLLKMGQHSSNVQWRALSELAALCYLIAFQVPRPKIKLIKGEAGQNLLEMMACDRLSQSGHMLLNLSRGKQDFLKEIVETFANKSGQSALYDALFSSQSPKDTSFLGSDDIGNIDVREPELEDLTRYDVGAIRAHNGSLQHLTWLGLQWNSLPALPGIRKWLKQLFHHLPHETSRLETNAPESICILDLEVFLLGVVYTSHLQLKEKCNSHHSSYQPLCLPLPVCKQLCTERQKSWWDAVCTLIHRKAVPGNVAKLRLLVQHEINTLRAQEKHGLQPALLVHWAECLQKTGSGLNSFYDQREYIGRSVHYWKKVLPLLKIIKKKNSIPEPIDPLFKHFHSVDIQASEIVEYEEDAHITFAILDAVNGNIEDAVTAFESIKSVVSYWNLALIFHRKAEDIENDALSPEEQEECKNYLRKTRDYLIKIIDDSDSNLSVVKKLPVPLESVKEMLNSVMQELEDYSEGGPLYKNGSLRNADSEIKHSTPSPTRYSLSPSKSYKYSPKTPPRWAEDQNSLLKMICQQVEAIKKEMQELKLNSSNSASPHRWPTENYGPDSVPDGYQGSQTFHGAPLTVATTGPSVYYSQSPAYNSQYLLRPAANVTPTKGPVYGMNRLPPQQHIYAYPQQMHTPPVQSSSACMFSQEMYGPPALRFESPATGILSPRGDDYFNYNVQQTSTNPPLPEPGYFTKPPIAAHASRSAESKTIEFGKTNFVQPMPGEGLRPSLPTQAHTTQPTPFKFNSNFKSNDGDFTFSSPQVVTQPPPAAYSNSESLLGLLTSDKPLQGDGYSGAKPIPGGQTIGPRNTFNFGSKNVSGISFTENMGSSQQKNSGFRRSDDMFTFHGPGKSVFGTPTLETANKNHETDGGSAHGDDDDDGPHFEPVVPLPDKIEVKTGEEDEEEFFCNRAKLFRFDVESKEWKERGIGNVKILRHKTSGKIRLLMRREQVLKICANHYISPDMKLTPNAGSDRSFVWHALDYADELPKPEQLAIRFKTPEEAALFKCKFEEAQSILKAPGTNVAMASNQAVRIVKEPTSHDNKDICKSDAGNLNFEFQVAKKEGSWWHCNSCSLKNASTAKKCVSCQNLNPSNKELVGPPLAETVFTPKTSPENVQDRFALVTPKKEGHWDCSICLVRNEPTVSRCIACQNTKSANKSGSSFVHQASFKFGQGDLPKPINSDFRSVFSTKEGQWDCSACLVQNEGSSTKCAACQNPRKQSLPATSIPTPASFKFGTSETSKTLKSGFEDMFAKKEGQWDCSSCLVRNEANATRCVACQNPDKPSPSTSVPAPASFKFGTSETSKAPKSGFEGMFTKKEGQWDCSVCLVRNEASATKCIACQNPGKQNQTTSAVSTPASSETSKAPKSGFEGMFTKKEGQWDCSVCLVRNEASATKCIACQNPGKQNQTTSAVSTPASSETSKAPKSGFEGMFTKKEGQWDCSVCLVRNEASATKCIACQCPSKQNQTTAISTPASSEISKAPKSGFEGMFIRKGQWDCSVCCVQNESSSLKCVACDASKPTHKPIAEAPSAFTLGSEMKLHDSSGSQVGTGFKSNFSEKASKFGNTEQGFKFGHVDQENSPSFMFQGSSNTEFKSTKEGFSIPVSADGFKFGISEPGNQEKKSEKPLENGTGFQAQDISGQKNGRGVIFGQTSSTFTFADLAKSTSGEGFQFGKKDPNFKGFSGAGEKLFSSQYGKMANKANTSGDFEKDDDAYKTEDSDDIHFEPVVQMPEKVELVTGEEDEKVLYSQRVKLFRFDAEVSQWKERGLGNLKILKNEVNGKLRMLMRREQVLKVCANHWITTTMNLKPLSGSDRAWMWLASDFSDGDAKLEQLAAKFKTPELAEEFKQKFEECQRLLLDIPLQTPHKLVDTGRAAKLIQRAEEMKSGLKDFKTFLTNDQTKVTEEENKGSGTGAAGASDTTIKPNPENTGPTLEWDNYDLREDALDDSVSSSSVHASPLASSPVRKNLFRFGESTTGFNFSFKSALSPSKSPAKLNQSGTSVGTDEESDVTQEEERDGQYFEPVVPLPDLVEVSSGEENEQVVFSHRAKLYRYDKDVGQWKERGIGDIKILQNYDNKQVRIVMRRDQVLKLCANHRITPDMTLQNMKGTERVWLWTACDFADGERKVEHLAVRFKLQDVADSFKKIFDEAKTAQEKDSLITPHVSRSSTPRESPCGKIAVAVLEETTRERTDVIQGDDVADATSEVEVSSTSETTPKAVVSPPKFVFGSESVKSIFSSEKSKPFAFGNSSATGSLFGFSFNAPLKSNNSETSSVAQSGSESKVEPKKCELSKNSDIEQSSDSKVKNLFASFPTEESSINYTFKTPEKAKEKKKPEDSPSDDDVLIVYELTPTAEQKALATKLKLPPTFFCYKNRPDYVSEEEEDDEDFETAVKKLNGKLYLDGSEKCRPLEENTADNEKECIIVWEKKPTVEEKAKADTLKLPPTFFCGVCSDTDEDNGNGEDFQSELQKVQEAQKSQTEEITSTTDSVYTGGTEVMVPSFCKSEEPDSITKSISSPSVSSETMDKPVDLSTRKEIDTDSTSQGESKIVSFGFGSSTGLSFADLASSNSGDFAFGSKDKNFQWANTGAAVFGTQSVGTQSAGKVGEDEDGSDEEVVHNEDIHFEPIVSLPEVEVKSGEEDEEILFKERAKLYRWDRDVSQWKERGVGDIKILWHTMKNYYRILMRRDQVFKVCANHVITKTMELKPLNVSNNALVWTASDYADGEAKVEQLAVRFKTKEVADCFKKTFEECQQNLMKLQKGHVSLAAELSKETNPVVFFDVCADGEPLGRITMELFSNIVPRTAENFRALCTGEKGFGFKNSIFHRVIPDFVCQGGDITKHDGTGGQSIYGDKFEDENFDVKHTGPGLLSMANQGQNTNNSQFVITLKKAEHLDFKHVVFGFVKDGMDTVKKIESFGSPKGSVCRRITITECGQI
UniProt P61019: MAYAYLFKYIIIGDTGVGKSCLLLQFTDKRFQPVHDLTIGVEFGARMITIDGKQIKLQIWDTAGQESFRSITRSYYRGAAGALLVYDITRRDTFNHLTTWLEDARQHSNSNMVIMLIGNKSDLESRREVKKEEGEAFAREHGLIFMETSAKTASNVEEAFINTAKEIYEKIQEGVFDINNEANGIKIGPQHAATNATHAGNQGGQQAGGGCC

Assays:
Assay in all cases: log2 fold change, soluble protein after heating vs DMSO (PISA); higher = thermal stabilisation; K562 lysate, 10 uM; active = over 0.2 and 3.5 SD of the protein, either way, in both replicates (recomputed)
[1] = compound: NCC(=O)Nc1ccc(-n2nc(C(F)(F)F)cc2-c2ccc3c(ccc4ccccc43)c2)cc1
In short: (§1)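 Soluble protein was defined as the supernatant remaining after 21,000xg for 90 min, following pooling of heated aliquots and adjustment to 0.5% NP-40 at 4°C. Before that, crude K562 extract at 1 mg/mL protein in PBS pH 7.4 with 1 mM MgCl2 was treated with 10 μM compound for 30 min and heated for 3 min across 48°C-58°C. Quantification used TMTpro 16plex LC-MS/MS with channel sums equalised, and values are log-two fold changes in thermal stability relative to solvent controls from duplicates.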

vorinostat = compound: O=C(CCCCCCC(=O)Nc1ccccc1)NO [vorinostat]
In short: as §1

silmitasertib = compound: O=C(O)c1ccc2c(c1)nc(Nc1cccc(Cl)c1)c1ccncc12 [silmitasertib]
In short: as §1

[2] = compound: O=C1NC(=O)C(c2cnc3ccccn23)=C1c1cn2c3c(cc(F)cc13)CN(C(=O)N1CCCCC1)CC2
In short: as §1

entospletinib = compound: c1cn2cc(-c3ccc4cn[nH]c4c3)nc(Nc3ccc(N4CCOCC4)cc3)c2n1 [entospletinib]
In short: as §1

Measured: log2 fold change

PYCR2 (UniProt Q96C36)
inactive: [1] 0.002 | vorinostat 0.1 | silmitasertib -0.008 | [2] 0.015 | entospletinib 0

RAB8A (UniProt P61006)
inactive: [1] -0.034 | vorinostat 0.1 | silmitasertib 0.051 | [2] -0.103 | entospletinib -0.003

RAP1B (UniProt F5GZG1)
inactive: [1] -0.051 | vorinostat -0.054 | silmitasertib -0.004 | [2] -0.099 | entospletinib -0.026

RABEP1 (UniProt Q15276)
inactive: [1] 0.025 | vorinostat 0.076 | silmitasertib -0.004 | [2] -0.012 | entospletinib -0.012

RAB20 (UniProt Q9NX57)
inactive: [1] 0.024 | vorinostat 0.136 | silmitasertib -0.022 | [2] -0.018 | entospletinib -0.012

RALBP1 (UniProt Q15311)
inactive: [1] -0.022 | vorinostat 0.022 | silmitasertib 0.023 | [2] -0.004 | entospletinib -0.004

RABGAP1L isoform 5 (UniProt Q5R372)
inactive: [1] -0.059 | vorinostat 0.017 | silmitasertib -0.013 | [2] -0.039 | entospletinib -0.043

Two consecutive records out of the list so far, for reference:
RAB20 (UniProt Q9NX57)
inactive: [1] 0.024 | vorinostat 0.136 | silmitasertib -0.022 | [2] -0.018 | entospletinib -0.012

RALBP1 (UniProt Q15311)
inactive: [1] -0.022 | vorinostat 0.022 | silmitasertib 0.023 | [2] -0.004 | entospletinib -0.004

Further records follow:

RAP2A (UniProt P10114)
inactive: [1] -0.035 | vorinostat 0.139 | silmitasertib -0.005 | [2] 0.045 | entospletinib -0.067

QARS (UniProt P47897)
inactive: [1] 0.008 | vorinostat -0.225 | silmitasertib 0.021 | [2] 0.029 | entospletinib 0.007

RAD54L2 (UniProt Q9Y4B4)
inactive: [1] 0.119 | silmitasertib 0.04 | [2] 0.01 | entospletinib 0.014
active: vorinostat -0.487

RAB3A (UniProt P20336)
inactive: [1] -0.021 | vorinostat 0.085 | silmitasertib -0.009 | [2] -0.007 | entospletinib 0.046

RAPGEF4 (UniProt Q8WZA2)
inactive: [1] 0.219 | vorinostat 0.143 | silmitasertib -0.09 | [2] 0.353 | entospletinib 0.014

QSER1, A0A3B3IRW6
active: vorinostat -0.236
inactive: [1] -0.013 | silmitasertib 0.038 | [2] 0.033 | entospletinib 0.002

R3HDM4 (UniProt Q96D70)
inactive: [1] -0.046 | vorinostat 0.003 | silmitasertib 0.017 | [2] -0.021 | entospletinib -0.062

RAB5A (UniProt P20339)
inactive: [1] 0.054 | vorinostat 0.041 | silmitasertib -0.022 | [2] 0.038 | entospletinib -0.013

RAB13 (UniProt P51153)
inactive: [1] -0.034 | vorinostat -0.056 | silmitasertib 0.117 | [2] -0.251 | entospletinib -0.039

PXK (UniProt Q7Z7A4)
inactive: [1] 0.043 | vorinostat -0.092 | silmitasertib -0.085 | [2] -0.018 | entospletinib 0.021

RAB4B isoform 2 (UniProt P61018)
inactive: [1] -0.046 | vorinostat 0.156 | silmitasertib -0.005 | [2] -0.04 | entospletinib 0.003

RAB3GAP2 (UniProt Q9H2M9)
inactive: [1] -0.033 | vorinostat -0.084 | silmitasertib 0.008 | [2] -0.008 | entospletinib 0.026

RAF1 isoform 2 (UniProt P04049)
inactive: [1] 0.126 | silmitasertib 0.024 | [2] 0.068 | entospletinib -0.015
active: vorinostat -0.304

RAD51C (UniProt O43502)
active: vorinostat -0.386
inactive: [1] 0.023 | silmitasertib -0.003 | [2] -0.015 | entospletinib 0.065

R3HDM1 isoform 3 (UniProt Q15032)
inactive: [1] 0.085 | vorinostat -0.051 | silmitasertib 0.029 | [2] -0.008 | entospletinib -0.036

RANBP2 (UniProt P49792)
inactive: [1] -0.01 | silmitasertib -0.004 | [2] 0.001 | entospletinib -0.006
active: vorinostat -0.343

RAB2A (UniProt P61019)
inactive: [1] -0.095 | vorinostat 0.141 | silmitasertib -0.001 | [2] -0.011 | entospletinib 0.006
